Test results published in patent US10946030B2, “Formulations of deoxycholic acid and salts thereof” (ALLERGAN SALES, LLC, priority 2011, dated 2021).
For at least one compound, name, drawing or mass did not settle the structure.

Assay: Osmolality of isotonic benzyl alcohol free deoxycholic acid formulations
Assay type: physicochemical

C[C@H](CCC(=O)O)[C@H]1CC[C@H]2[C@@H]3CC[C@@H]4C[C@H](O)CC[C@]4(C)[C@H]3C[C@H](O)[C@]12C [DCA, deoxycholic acid]
osmolality (5 mg/mL, 100 mL batch, pH 8.3, after addition of 859 mg NaCl): 294 mOsm
osmolality (5 mg/mL, 100 mL batch, pH 8.3, phosphate buffer, before NaCl addition): 39 mOsm
osmolality (5 mg/mL, 1000 mL batch, pH 8.4, 8.6 g NaCl): 305 mOsm
osmolality (10 mg/mL, 100 mL batch, pH 8.3, after addition of 859 mg NaCl): 305 mOsm
osmolality (10 mg/mL, 100 mL batch, pH 8.3, phosphate buffer, before NaCl addition): 51 mOsm
osmolality (10 mg/mL, 1000 mL batch, pH 8.3, 8.6 g NaCl): 314 mOsm
